# The list shows a part of the results.
# By UniProt entry, the sequences of proteins in these tests, tags left out. Where a name states a change or a piece, a line headed by the entry shows the natural chain unless it says otherwise.
# UniProt P23497: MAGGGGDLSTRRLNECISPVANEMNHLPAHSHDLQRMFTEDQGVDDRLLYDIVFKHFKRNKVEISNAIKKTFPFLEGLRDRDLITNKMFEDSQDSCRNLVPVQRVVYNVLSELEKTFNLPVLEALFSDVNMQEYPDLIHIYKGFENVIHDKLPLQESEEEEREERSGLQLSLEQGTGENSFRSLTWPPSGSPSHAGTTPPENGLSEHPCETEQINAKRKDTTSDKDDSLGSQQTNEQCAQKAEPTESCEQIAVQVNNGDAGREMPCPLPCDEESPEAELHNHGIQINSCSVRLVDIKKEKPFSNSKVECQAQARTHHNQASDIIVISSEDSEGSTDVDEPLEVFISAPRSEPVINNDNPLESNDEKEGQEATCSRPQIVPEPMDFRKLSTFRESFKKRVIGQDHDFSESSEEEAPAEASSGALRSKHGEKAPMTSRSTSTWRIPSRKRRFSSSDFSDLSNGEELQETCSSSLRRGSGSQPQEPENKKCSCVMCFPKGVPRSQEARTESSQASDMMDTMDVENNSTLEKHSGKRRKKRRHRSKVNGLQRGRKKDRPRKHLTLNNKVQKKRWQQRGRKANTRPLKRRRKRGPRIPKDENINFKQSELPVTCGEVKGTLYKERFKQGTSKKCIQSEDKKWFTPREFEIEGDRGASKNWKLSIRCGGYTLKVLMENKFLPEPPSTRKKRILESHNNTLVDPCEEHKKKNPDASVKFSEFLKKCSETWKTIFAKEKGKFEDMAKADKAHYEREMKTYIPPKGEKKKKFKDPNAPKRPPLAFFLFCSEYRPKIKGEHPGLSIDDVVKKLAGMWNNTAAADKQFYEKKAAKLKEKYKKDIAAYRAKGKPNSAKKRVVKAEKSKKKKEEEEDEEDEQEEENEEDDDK
# UniProt Q9Y5M8: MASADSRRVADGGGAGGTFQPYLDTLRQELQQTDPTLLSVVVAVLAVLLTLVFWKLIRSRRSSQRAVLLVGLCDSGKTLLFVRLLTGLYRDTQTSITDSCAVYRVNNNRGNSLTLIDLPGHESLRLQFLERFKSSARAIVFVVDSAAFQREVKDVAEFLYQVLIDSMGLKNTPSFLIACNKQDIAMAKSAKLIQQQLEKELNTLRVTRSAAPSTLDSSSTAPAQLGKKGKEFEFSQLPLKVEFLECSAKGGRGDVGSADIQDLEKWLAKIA
# UniProt P55769: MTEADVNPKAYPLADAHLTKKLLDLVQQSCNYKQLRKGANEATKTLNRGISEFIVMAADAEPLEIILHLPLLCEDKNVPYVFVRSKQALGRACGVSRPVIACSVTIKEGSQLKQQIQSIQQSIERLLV
# UniProt Q8NB90: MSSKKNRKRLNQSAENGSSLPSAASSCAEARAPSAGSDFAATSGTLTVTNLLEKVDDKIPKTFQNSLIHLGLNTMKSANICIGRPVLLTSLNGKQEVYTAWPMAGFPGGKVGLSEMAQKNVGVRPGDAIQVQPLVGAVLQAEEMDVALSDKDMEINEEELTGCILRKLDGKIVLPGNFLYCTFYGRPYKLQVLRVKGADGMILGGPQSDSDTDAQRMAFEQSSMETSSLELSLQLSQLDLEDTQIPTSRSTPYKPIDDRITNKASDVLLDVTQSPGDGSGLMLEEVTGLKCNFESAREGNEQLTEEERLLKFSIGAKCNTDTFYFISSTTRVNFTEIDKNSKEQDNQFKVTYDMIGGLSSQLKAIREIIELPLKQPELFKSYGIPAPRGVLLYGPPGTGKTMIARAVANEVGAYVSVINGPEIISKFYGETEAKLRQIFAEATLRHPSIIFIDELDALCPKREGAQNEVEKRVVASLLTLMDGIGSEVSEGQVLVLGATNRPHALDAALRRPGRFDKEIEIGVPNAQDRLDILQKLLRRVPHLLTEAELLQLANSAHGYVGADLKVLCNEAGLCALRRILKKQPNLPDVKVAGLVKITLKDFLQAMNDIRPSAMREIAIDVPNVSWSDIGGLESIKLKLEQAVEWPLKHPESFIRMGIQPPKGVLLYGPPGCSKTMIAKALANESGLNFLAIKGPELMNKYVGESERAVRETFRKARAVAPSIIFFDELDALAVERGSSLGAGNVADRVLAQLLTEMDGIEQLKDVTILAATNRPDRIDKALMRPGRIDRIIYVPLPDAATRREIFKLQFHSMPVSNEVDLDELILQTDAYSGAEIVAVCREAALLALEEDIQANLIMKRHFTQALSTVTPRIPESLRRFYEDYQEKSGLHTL
# UniProt Q8N0X7: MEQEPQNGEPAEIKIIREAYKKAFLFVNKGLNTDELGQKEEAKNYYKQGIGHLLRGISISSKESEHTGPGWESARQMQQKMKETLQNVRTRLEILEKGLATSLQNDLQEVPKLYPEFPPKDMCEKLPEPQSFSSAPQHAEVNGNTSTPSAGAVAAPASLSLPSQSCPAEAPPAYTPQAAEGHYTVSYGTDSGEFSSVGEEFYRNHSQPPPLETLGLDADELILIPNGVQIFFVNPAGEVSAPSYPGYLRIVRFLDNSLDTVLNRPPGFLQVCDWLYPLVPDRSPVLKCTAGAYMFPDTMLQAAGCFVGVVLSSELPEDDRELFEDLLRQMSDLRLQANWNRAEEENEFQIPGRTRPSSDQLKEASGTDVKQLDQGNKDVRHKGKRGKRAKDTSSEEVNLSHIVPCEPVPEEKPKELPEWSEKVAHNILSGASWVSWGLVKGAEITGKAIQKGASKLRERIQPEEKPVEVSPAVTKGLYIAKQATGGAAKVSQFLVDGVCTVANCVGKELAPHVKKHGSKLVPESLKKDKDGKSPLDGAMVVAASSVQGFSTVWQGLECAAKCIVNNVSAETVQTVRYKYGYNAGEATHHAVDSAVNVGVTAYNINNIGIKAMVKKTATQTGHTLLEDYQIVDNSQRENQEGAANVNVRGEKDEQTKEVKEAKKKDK
# UniProt P00441, whole entry, looked up: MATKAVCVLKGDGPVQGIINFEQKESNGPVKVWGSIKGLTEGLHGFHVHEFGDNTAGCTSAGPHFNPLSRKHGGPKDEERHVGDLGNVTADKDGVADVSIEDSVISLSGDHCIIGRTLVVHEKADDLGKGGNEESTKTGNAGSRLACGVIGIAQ
# UniProt Q8N5C6: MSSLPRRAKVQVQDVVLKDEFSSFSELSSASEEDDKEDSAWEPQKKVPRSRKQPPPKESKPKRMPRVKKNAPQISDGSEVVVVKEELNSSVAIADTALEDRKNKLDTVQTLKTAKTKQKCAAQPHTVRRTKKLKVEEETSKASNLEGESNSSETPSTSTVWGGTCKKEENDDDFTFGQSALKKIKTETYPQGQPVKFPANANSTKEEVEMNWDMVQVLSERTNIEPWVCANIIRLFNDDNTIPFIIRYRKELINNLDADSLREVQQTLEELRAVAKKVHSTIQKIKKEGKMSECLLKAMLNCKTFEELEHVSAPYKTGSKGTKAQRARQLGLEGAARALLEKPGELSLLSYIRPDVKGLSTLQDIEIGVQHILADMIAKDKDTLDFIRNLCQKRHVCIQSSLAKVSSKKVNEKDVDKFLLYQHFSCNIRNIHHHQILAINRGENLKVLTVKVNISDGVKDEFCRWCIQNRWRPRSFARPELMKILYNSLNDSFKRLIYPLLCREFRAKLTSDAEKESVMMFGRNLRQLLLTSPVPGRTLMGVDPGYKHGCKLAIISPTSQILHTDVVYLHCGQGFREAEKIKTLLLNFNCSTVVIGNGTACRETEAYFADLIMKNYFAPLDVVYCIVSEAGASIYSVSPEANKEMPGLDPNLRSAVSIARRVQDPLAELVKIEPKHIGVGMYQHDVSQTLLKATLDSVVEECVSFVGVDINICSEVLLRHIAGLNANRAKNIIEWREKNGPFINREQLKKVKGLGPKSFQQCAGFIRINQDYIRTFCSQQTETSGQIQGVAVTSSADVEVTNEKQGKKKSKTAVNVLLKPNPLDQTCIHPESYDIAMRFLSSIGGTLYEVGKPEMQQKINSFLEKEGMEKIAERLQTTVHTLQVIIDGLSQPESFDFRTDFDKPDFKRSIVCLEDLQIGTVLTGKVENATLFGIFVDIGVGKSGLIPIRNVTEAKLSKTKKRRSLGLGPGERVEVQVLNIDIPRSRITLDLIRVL
# UniProt Q01082, whole entry, looked up: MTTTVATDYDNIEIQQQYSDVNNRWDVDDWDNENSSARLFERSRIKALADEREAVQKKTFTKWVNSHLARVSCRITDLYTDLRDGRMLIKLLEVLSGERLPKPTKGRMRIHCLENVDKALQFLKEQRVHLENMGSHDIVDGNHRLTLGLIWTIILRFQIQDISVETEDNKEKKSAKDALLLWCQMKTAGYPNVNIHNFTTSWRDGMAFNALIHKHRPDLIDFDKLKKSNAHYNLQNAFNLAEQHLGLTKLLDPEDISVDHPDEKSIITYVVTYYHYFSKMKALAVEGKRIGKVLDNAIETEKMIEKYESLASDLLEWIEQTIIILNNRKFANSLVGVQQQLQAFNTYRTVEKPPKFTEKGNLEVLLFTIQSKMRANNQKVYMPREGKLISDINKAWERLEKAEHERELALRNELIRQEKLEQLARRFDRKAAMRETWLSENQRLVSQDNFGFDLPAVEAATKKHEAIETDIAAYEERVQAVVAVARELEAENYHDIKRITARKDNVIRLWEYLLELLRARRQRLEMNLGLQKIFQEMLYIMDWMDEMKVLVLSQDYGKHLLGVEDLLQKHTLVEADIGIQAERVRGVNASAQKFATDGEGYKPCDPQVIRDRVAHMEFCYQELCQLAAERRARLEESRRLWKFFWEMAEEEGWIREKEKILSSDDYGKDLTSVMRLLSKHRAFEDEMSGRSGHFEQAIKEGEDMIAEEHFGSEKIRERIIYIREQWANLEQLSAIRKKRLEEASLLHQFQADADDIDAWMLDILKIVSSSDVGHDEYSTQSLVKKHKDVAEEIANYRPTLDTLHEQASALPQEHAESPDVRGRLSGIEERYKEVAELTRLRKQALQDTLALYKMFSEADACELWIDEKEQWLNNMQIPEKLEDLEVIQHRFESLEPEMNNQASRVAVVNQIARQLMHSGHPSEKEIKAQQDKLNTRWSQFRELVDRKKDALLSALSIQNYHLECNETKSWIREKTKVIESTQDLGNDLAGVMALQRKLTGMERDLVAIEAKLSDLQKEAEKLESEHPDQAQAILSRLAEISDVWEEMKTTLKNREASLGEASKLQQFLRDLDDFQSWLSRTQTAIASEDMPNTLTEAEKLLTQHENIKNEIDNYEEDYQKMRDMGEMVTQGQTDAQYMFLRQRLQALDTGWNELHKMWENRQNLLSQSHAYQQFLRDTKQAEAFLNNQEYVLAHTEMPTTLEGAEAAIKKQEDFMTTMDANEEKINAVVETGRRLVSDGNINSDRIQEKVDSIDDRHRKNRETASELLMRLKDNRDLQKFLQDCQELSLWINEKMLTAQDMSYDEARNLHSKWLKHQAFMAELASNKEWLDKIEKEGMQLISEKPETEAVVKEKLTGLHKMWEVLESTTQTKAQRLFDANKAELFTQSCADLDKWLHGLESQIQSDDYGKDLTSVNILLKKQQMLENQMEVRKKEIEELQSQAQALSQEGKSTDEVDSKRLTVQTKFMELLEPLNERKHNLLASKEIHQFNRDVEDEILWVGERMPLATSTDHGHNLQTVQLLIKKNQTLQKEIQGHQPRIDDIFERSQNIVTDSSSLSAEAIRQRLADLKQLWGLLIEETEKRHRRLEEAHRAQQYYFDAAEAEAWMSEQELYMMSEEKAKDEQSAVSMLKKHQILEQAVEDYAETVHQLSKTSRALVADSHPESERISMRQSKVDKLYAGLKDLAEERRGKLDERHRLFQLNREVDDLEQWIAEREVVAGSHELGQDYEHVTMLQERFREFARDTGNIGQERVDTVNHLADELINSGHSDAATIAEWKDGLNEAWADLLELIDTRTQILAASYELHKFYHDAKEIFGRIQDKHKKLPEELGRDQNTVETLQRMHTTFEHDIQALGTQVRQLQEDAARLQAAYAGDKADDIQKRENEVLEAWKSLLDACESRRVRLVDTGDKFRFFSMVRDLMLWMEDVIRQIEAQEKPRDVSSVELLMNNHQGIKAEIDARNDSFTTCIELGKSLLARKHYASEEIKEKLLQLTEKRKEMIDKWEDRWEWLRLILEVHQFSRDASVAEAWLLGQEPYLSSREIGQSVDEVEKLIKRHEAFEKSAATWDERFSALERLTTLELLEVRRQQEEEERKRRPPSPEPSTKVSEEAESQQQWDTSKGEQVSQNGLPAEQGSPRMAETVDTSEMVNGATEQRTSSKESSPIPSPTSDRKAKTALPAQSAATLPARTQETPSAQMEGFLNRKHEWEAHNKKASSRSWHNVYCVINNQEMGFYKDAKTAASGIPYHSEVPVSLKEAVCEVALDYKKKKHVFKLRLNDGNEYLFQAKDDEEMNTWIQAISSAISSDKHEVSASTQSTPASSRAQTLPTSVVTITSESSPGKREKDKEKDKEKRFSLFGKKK
# Compound: Cc1cc(ccc1-c1ccccc1)C(=O)N1CCCN(CC1)C(=O)CCl [compound 10]
# Assay: probe-labelled cysteine peptide fold change vs DMSO (competition) (log2 fold change); higher = less target engagement (more negative = stronger competition)
# Details: THP-1, incubation time: 4 h
# 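Note: competitive profiling in live THP-1 cells: cysteine peptides tagged with an iodoacetamide desthiobiotin (IA-DTB) probe, intensity after compound treatment relative to DMSO-treated cells.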
Target,probe-labelled cysteine peptide fold change (10 µM),probe-labelled cysteine peptide fold change (50 µM)
SP100_P23497_373_EGQEATCSRPQIVPEPMDFR (UniProt P23497),-0.146,-0.282
SNX29_Q8TEQ0_44_VTCLCAQFEAVLQHGLK (UniProt Q8TEQ0),-0.185,0.116
SRPRB_Q9Y5M8_179_NTPSFLIACNK (UniProt Q9Y5M8),0.136,0.111
SNX7_Q9UNH6_325_VECANNALK (UniProt Q9UNH6),-0.12,-0.28
SORD_Q00796_165_LPDNVTFEEGALIEPLSVGIHACR (UniProt Q00796),0.00881,0.188
SP3_Q02447_623+628_QHICHIPGCGK (UniProt Q02447),-0.239,-0.41
SNU13_P55769_102_ACGVSRPVIACSVTIK (UniProt P55769),0.263,0.155
SRC_P12931_241_HADGLCHR (UniProt P12931),-0.0104,0.065
SNU13_P55769_30_LLDLVQQSCNYK (UniProt P55769),0.0842,0.135
SPATA5_Q8NB90_574_VLCNEAGLCALRR (UniProt Q8NB90),0.00199,-0.227
SPART_Q8N0X7_562_CIVNNVSAETVQTVR (UniProt Q8N0X7),0.154,-0.538
SOD1_P00441_147_LACGVIGIAQ (UniProt P00441),-0.188,-0.114
SNX18_Q96RF0_30_EHEVLSLCSEQDIEGWLEGVNSR (UniProt Q96RF0),-0.133,-0.0822
SRBD1_Q8N5C6_120_CAAQPHTVR (UniProt Q8N5C6),-0.0573,-0.126
SPTBN1_Q01082_619+624_VAHMEFCYQELCQLAAER (UniProt Q01082),-0.357,0.0504

# Quoted from the listing.
# probe-labelled cysteine peptide fold change (50 µM) with SRBD1_Q8N5C6_120_CAAQPHTVR (UniProt Q8N5C6) reads -0.126
# probe-labelled cysteine peptide fold change (50 µM) with SPATA5_Q8NB90_574_VLCNEAGLCALRR (UniProt Q8NB90) reads -0.227
